Assay results taken from US11591328B2 (XIAMEN BIOTIME BIOTECHNOLOGY CO., LTD., priority 2018, dated 2023).
The match of structure and compound is tentative.

Sequences of proteins named here, by UniProt entry; tags and fusion partners are left off. Residues count along the entry.
UniProt P10721, 26-976 limits assumed: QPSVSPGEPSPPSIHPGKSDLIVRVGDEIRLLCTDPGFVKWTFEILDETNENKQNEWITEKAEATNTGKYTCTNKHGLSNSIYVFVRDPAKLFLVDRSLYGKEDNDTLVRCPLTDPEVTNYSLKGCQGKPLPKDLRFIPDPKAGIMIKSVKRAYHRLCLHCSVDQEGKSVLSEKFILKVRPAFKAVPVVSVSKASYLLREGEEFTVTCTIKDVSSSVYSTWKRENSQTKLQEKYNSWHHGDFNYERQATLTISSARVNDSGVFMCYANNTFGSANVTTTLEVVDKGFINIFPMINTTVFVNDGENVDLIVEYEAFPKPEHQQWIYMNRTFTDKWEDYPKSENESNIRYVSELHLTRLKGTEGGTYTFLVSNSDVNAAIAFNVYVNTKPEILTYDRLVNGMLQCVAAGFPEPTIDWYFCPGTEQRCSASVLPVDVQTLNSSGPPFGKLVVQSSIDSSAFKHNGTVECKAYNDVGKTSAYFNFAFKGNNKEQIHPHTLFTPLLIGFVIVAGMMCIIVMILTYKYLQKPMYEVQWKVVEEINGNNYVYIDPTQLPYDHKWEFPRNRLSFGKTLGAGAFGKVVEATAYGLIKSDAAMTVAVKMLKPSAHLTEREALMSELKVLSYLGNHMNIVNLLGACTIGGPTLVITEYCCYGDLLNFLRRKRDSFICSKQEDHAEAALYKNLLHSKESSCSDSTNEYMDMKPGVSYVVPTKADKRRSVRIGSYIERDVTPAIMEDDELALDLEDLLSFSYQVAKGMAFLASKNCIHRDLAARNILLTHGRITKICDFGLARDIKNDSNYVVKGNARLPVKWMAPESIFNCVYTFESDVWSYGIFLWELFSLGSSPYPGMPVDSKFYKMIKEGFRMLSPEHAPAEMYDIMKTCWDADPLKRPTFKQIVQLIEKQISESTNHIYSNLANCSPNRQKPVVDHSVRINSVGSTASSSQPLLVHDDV
UniProt P09619, 33-1106 limits assumed: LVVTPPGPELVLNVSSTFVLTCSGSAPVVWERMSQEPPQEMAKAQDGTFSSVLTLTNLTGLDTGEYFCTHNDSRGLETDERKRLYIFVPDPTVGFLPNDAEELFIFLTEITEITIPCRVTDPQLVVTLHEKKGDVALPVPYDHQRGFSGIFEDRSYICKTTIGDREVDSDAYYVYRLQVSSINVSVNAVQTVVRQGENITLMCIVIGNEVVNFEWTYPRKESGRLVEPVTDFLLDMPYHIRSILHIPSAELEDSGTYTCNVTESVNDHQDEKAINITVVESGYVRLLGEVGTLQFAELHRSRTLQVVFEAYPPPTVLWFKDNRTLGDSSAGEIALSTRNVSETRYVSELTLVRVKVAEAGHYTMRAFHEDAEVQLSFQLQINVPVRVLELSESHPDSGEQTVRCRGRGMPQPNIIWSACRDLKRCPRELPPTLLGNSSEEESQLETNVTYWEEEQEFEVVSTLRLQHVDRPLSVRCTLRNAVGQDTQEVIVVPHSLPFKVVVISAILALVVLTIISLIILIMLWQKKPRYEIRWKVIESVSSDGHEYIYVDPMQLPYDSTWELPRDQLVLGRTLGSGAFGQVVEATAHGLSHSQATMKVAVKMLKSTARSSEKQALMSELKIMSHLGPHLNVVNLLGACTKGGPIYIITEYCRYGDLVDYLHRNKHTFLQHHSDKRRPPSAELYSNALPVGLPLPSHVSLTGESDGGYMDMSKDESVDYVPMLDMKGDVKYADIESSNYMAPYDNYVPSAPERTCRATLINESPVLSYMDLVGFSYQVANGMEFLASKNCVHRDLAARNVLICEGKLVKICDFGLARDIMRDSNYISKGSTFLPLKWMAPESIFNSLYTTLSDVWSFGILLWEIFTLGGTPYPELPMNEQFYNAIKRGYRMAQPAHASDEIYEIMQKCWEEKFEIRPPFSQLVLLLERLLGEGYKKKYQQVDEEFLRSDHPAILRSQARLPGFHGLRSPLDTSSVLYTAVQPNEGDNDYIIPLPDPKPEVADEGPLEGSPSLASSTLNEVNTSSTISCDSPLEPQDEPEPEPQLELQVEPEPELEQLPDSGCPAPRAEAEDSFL

Columns and labels:
c-Kit = c-Kit (Homo sapiens (Human), UniProt P10721); assay: c-Kit kinase activity test (Caliper mobility shift assay); assay type: biochemical; settings: read-out: c-Kit IC50
PDGFRβ = PDGFRβ (Homo sapiens (Human), UniProt P09619); assay: PDGFRβ kinase activity test (Caliper mobility shift assay); assay type: biochemical; settings: read-out: PDGFRβ IC50

Cc1cc(-c2cc(Oc3ccc(NC(=O)N4CCC5(CCC(F)(F)CC5)C4=O)nc3)ccn2)ccn1
IC50 (c-Kit): 0.0247 µM | IC50 (PDGFRβ): 8.44 µM
